The text below walks through data of the supplement of paper PMC7125110.

± gives the standard error. The uncertainty is large for many entries.

The labels stand for the following.
B1: glmS ribozyme (parent)
chain: AUAAAAGCGCCAGAACUACAGAAAUGUAGUUGACGAGGAGGAGGUUUAUCGAAUUUUCGGCGGAUGCCUCCAAA

The variants in the first series derive from B1. Description: kcat; higher = faster cleavage; RNA array. The settings on record: with glucosamine-6-phosphate. The procedure, abridged: (§1)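 Barcoded ribozyme variants on sequenced MiSeq chips were transcribed in situ by E. coli RNA polymerase and followed at 37 °C through a hybridised Cy3 probe. Glucosamine-6-phosphate at 40 μM to 10 mM in HEPES/KCl/Mg(OAc)2 buffer was flowed in, and tiles were imaged over ~14 h. Signals were normalised to baseline and to non-cleaving reference variants, and per-tile medians were fit to one- or two-exponential decays to give kobs. Weighted Michaelis–Menten fits across concentrations gave kcat and KM.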
Consider AUAAAAGCGCCAGAACUACAGAAAUGUAGUUUACGAGGAGGAGGUUAAUCGAAUUUUCGGCGGAUGCCUCCAAA [G32U U47A], for which the kcat (usually the maximal rate divided by the concentration of active sites) was 0.000688 ± 0.00026 s⁻¹.

Regarding AUAAAAGCGCCAGAACUACAGAAAUGUAGUUGGCGAGGAGGAGGUUUAUCGAAUUUUCGGCGGAUGCCGCCAAA [A33G U69G], the kcat came to 4.47e-05 ± 2.2e-05 s⁻¹.

Take AUAAAAGCGCCAGAACUACAGAAAUGUAGUUGACUAGGAGGAGGUUUAUCGGAUUUUCGGCGGAUGCCUCGAAA [G35U A52G C71G]: the kcat is less than 1e-05 s⁻¹.

For AUAAAAGCGCCAGAACUACAGAAAUGUAGUUUACGAGGAGGAGGUUUAUCGAAGUUUCGGCGGAUGCCUCCAAA [G32U U54G], the catalytic constant (kcat) worked out at 0.00181 ± 0.0011 s⁻¹.

For the variant AUAAAAGCGCCAGAACUACAGAAAUGUAGUUCAUGAGGAGGAGGUUAAUCGAAGUUUCGGGGGAUGCCUGCAAA [G32C C34U U47A U54G C61G C70G], the kcat is 2.92e-05 ± 1.5e-05 s⁻¹.

For the variant AUAAAAGCGCCAGAACUACAGAAAUGUAGUUGACAAGGAGGAGGUUUAUCGAAUUUUCGGCGGGUGCCUGCAAA [G35A A64G C70G], the kcat came to 3.33e-05 ± 1.9e-05 s⁻¹.

Take AUAAAAGCGCCAGAACUACAGAAAUGUAGUUGACGACGAGGAGGUUUAUCGAAUGUUCGGCGGAUGCCUCCAAA [G37C U55G]: the kcat was 8.65e-05 ± 4.8e-05 s⁻¹.

On to AUAAAAGCGCCAGAACUACAGAAAUGUAGUUGACGCGGAGGAGGUUUAUCGAAUUUUCGGCGGAUGCCUGCAAA [A36C C70G], for which the kcat worked out at 3.8e-05 ± 2.7e-05 s⁻¹.

As for AUAAAAGCGCCAGAACUACAGAAAUGUAGUUGAGGAGGAGGAGGUUUAUCGAAUUUUCGGCGGAUGCCGCCAAA [C34G U69G], the kcat came to 4.85e-05 ± 2.5e-05 s⁻¹.

Turning to AUAAAAGCGCCAGAACUACAGAAAUGUAGUUGACGCGUAGGAGGUUUAUCGAAUUUUCGGCGGAUGCGUCCAAA [A36C G38U C68G], the kcat was determined as 2.64e-05 ± 2e-05 s⁻¹.

Consider AUAAAAGCGCCAGAACUACAGAAAUGUAGUUGACGGGGAGGAGGUUUAUAGAAUUUUCGGCGGAUGUCUCCAAA [A36G C50A C67U], for which the kcat worked out at 2.36e-05 ± 1.2e-05 s⁻¹.

With AUAAAAGCGCCAGAACUACAGAAAUGUAGUUGACGAUGAGGAGGUUUAUCGUAUUUUCGUCGGAUGCCUGCAAA [G37U A52U G60U C70G], the kcat turned out to be 1.37e-05 ± 8.1e-06 s⁻¹.

As to AUAAAAGCGCCAGAACUACAGAAAUGUAGUUGAGUAGGAGGAGGUUUAUCGAAUUUUCGGCGGAUGCCUCCAAA [C34G G35U], the kcat worked out at 2.39e-05 ± 1.4e-05 s⁻¹.

For AUAAAAGCGCCAGAACUACAGAAAUGUAGUUCACGAGGAGGAGGUUUAUCGAAUUUUCGGCGGAUGCUUCCAAA [G32C C68U], the kcat was 1.25e-05 ± 1.1e-06 s⁻¹.

For AUAAAAGCGCCAGAACUACAGAAAUGUAGUUCACGAGGAGGAGGUUUAUCGAAUUUUCGGCGGAUGCAUCCAAA [G32C C68A], the kcat is 2.72e-05 ± 1.8e-05 s⁻¹.

AUAAAAGCGCCAGAACUACAGAAAUGUAGUUCACGAGGAGGAGGUUUAUCGAAUUUUCGGCGGAUGCCUGCAAA [G32C C70G]: the turnover number (kcat) worked out at 2.36e-05 ± 1.4e-05 s⁻¹.

Turning to AUAAAAGCGCCAGAACUACAGAAAUGUAGUUAACGAGGAGGAGGUUUAUCGAAUUUCCGGCGGAUGCCUCCAAA [G32A U57C], the turnover number (kcat) was determined as 2.67e-05 ± 1.4e-05 s⁻¹.

Consider AUAAAAGCGCCAGAACUACAGAAAUGUAGUUGUCGAGGAGGGGGUUUAUCGAAUUUUCGGCGGAUGCCUCCAAA [A33U A42G], for which the kcat came to 0.000108 ± 7.3e-06 s⁻¹.

In another series the parent is B1. Description: KM; higher = weaker cofactor use; RNA array. The settings on record: with glucosamine-6-phosphate. The procedure, abridged:
as §1
For AUAAAAGCGCCAGAACUACAGAAAUGUAGUUUACGAGGAGGAGGUUAAUCGAAUUUUCGGCGGAUGCCUCCAAA [G32U U47A], the KM – broadly, the concentration of substrate that gives half-maximal velocity – amounted to 3.85 ± 2.2 mM.

In the case of AUAAAAGCGCCAGAACUACAGAAAUGUAGUUUACGAGGAGGAGGUUUAUCGAAGUUUCGGCGGAUGCCUCCAAA [G32U U54G], the Michaelis-Menten constant (KM) came to 10.8 ± 10 mM.

In the case of AUAAAAGCGCCAGAACUACAGAAAUGUAGUUGACAAGGAGGAGGUUUAUCGAAUUUUCGGCGGGUGCCUGCAAA [G35A A64G C70G], the Michaelis constant (KM) was 3.55 ± 3.4 mM.

In the case of AUAAAAGCGCCAGAACUACAGAAAUGUAGUUGACGACGAGGAGGUUUAUCGAAUGUUCGGCGGAUGCCUCCAAA [G37C U55G], the KM turned out to be 13.9 ± 13 mM.

On to AUAAAAGCGCCAGAACUACAGAAAUGUAGUUCACGAGGAGGAGGUUUAUCGAAUUUUCGGCGGAUGCUUCCAAA [G32C C68U], for which the KM stood at 1.35 ± 0.62 mM.

As for AUAAAAGCGCCAGAACUACAGAAAUGUAGUUGUCGAGGAGGGGGUUUAUCGAAUUUUCGGCGGAUGCCUCCAAA [A33U A42G], the KM worked out at 2 ± 0.35 mM.

In another series the parent is B1. As to the kind of experiment: self-cleavage kobs at 160 uM GlcN6P; higher = faster cleavage; RNA array. The settings on record: with glucosamine-6-phosphate. The procedure, abridged: as §1
On to AUAAAAGCGCCAGAACUACAGAAAUGUAGUUGGCGAGGAGGAGGUUUAUCGAAUUUUCGGCGGAUGCCGCCAAA [A33G U69G], for which the “self-cleavage kobs at 160 uM GlcN6P” value was 0.000186 ± 0.00011 s⁻¹.

Turning to AUAAAAGCGCCAGAACUACAGAAAUGUAGUUGACGCGGAGGAGGUUUAUCGAAUUUUCGGCGGAUGCCUGCAAA [A36C C70G], the “self-cleavage kobs at 160 uM GlcN6P” value turned out to be 0.000162 ± 0.00011 s⁻¹.

With AUAAAAGCGCCAGAACUACAGAAAUGUAGUUGAGGAGGAGGAGGUUUAUCGAAUUUUCGGCGGAUGCCGCCAAA [C34G U69G], the “self-cleavage kobs at 160 uM GlcN6P” value was determined as 3.49e-05 ± 2.4e-05 s⁻¹.

For AUAAAAGCGCCAGAACUACAGAAAUGUAGUUGAGUAGGAGGAGGUUUAUCGAAUUUUCGGCGGAUGCCUCCAAA [C34G G35U], the “self-cleavage kobs at 160 uM GlcN6P” value stood at 3.34e-05 ± 2.6e-05 s⁻¹.

In a further series the parent is B1. Description: self-cleavage kobs at 640 uM GlcN6P; higher = faster cleavage; RNA array. The settings on record: with glucosamine-6-phosphate. The gist of the method: as §1
For the variant AUAAAAGCGCCAGAACUACAGAAAUGUAGUUCAUGAGGAGGAGGUUAAUCGAAGUUUCGGGGGAUGCCUGCAAA [G32C C34U U47A U54G C61G C70G], the “self-cleavage kobs at 640 uM GlcN6P” value turned out to be 3.48e-05 ± 2.8e-05 s⁻¹.

In the next series the parent is B1. Description: self-cleavage kobs at 2500 uM GlcN6P; higher = faster cleavage; RNA array. The settings on record: with glucosamine-6-phosphate. The procedure, abridged:
as §1
AUAAAAGCGCCAGAACUACAGAAAUGUAGUUGACGACGAGGAGGUUUAUCGAAUGUUCGGCGGAUGCCUCCAAA [G37C U55G]: the “self-cleavage kobs at 2500 uM GlcN6P” value was determined as 1.22e-05 ± 8.8e-06 s⁻¹.

Consider AUAAAAGCGCCAGAACUACAGAAAUGUAGUUGACGCGGAGGAGGUUUAUCGAAUUUUCGGCGGAUGCCUGCAAA [A36C C70G], for which the “self-cleavage kobs at 2500 uM GlcN6P” value amounted to 0.000185 ± 0.00013 s⁻¹.

As to AUAAAAGCGCCAGAACUACAGAAAUGUAGUUCACGAGGAGGAGGUUUAUCGAAUUUUCGGCGGAUGCCUGCAAA [G32C C70G], the “self-cleavage kobs at 2500 uM GlcN6P” value came to 1.81e-05 ± 1.5e-05 s⁻¹.

The next series covers variants of B1. Description: self-cleavage kobs at 40 uM GlcN6P; higher = faster cleavage; RNA array. The settings on record: with glucosamine-6-phosphate. The gist of the method: as §1
As to AUAAAAGCGCCAGAACUACAGAAAUGUAGUUGACGCGGAGGAGGUUUAUCGAAUUUUCGGCGGAUGCCUGCAAA [A36C C70G], the “self-cleavage kobs at 40 uM GlcN6P” value is 2.39e-05 ± 1.3e-05 s⁻¹.

For the variant AUAAAAGCGCCAGAACUACAGAAAUGUAGUUGAGGAGGAGGAGGUUUAUCGAAUUUUCGGCGGAUGCCGCCAAA [C34G U69G], the “self-cleavage kobs at 40 uM GlcN6P” value stood at 2.55e-05 ± 1.4e-05 s⁻¹.

In another series the parent is B1. As to the kind of experiment: self-cleavage kobs at 10000 uM GlcN6P; higher = faster cleavage; RNA array. The settings on record: with glucosamine-6-phosphate. The procedure, abridged: as §1
As for AUAAAAGCGCCAGAACUACAGAAAUGUAGUUGACGCGGAGGAGGUUUAUCGAAUUUUCGGCGGAUGCCUGCAAA [A36C C70G], the “self-cleavage kobs at 10000 uM GlcN6P” value is 1.75e-05 ± 1e-05 s⁻¹.

As to AUAAAAGCGCCAGAACUACAGAAAUGUAGUUGAGGAGGAGGAGGUUUAUCGAAUUUUCGGCGGAUGCCGCCAAA [C34G U69G], the “self-cleavage kobs at 10000 uM GlcN6P” value was 1.52e-05 ± 1.3e-05 s⁻¹.

As to AUAAAAGCGCCAGAACUACAGAAAUGUAGUUAACGAGGAGGAGGUUUAUCGAAUUUCCGGCGGAUGCCUCCAAA [G32A U57C], the “self-cleavage kobs at 10000 uM GlcN6P” value was 1.88e-05 ± 1.2e-05 s⁻¹.
